Laboratory results published in article PMC10059083, “Design, Synthesis, and Biological Evaluation of Novel Hydroxamic Acid-Based Organoselenium Hybrids” (Pharmaceuticals, 2023).
In brackets after ≈: the same amount, converted by molar mass.

Experiments:
[1] = tested on: E. coli; test: MIC by microdilution, E. coli; assay type: cell-based; settings: Escherichia coli; microdilution method
From the text: (§1) The encouraging antitumor properties of the OSe compounds motivated us to evaluate their corresponding antimicrobial activities against the C. albicans fungal strain, S. aureus Gram-positive bacteria, and E. coli Gram-negative bacteria. Therefore, we applied the agar diffusion and minimum inhibitory concentration (MIC) methods using clotrimazole antifungal and ampicillin antibacterial drugs as standards.
(§2) The products’ antimicrobial properties were examined according to the previously reported method, via agar well diffusion assay against E. coli, S. aureus, and C. albicans. A microdilution method was also used to record MICs (M), following the previously reported procedure. Experimental details can be found in the Supplementary Materials.
(§3) Briefly, a concentration of 1 mM was prepared for each compound by dissolving in DMSO. Paper discs of standard size […] were sterilized in an autoclave and soaked in 9 µL of the test compounds, and placed in the Petri dishes, which in turn contain a nutrient media (agar 9 g, peptone 5 g, and beef extract 3 g) seeded with the dedicated strain. Incubation lasted for 13 h at 36 0C. […]

[2] = tested on: S. aureus; test: MIC by microdilution, S. aureus; assay type: cell-based; settings: Staphylococcus aureus; microdilution method
From the text: as §1, §2, §3

**Q.** How did the MIC [1] turn out when `CC1(C)S[C@@H]2[C@H](NC(=O)[C@H](N)c3ccccc3)C(=O)N2[C@H]1C(=O)O` [Ampicillin, ampicillin, reference compound] was run?
**A.** Its MIC is 0.5 µM (≈ 0.175 µg/mL).

**Q.** And the MIC [2]?
**A.** Its MIC is 1 µM (≈ 0.349 µg/mL).
